Laboratory results as given in PubChem BioAssay AID652054 (National Center for Advancing Translational Sciences (NCATS), 2013).
The whole screen tested about 360,000 compounds, of which about 9,100 (2.5%) were called active. The shares of active, inactive and inconclusive entries below differ from those in the screen. Rule as the data show it: active = max response below about -50%; inconclusive = no clear call, values can overlap the other calls; inactive = above that.

Chains of the proteins cited; added tags and fusions are not shown.
UniProt P35462, whole entry, looked up: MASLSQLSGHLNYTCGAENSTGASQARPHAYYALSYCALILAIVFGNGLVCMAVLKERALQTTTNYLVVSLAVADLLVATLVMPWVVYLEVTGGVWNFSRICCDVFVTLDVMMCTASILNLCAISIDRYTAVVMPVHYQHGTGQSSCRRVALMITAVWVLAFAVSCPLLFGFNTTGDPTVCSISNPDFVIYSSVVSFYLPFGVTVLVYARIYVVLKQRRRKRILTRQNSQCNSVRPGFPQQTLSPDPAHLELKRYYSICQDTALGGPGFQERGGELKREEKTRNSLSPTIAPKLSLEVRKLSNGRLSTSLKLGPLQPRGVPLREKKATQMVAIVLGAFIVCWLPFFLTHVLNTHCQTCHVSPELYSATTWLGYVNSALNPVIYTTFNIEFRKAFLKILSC

molecular target: D(3) dopamine receptor (Homo sapiens) (UniProt P35462); experiment: qHTS of D3 Dopamine Receptor Antagonist: qHTS; conditions: D3R cells, DiscoveRx beta-arrestin luminescence, antagonist mode; stronger effect = lower value
Procedure, shortened: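 Cells plated overnight at 1500 cells/well, then exposed to library compounds with dopamine controls for 90 minutes at 37 degrees C. DiscoveRx reagent added for 30–60 minutes at room temperature; luminescence read, quantitative HTS format.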
% is scaled to controls: 0 for no effect and ±100 for the full control effect.

Structure (SMILES)	max response, negative = inhibition
O=C1CCC(C(=O)OCc2nnc(-c3ccccc3)o2)=NN1	inconclusive: -34.9%
COc1ccccc1N1CCN(C(=O)c2cc(-c3ccccc3)nc3c2cnn3C(C)C)CC1	inactive: 18.4%
Cc1ccccc1CN1CCC(n2nccc2NC(=O)c2ccc3c(c2)OCO3)CC1	inconclusive: -45.3%
CS(=O)(=O)c1ccc(-c2nn[nH]n2)cc1	inconclusive: -44.3%
COc1ccc(CC2(CO)CCN(Cc3cnc(-c4ccccc4C)nc3)CC2)cc1	inactive: -8.95%
O=C(CN1C(=O)NC2(CCCCCC2)C1=O)Nc1ccc(OC(F)(F)F)cc1	inconclusive: -38%
COc1ccc(NC(=O)CNS(=O)(=O)c2cccc3nonc23)c(OC)c1	inconclusive: -39.2%
COc1ccccc1N(C(=O)Cn1nnc2ccccc21)C(C(=O)NCc1ccco1)c1ccc(C)o1 (stereo not drawn)	inconclusive: -37.7%
COc1ccc(NC(=O)C(=O)N2N=C(C(C)C)CC2(O)C(F)(F)F)cc1 (stereo not drawn)	inconclusive: -45.3%
COc1ccc(CNS(=O)(=O)c2cc(Br)cc3c2N(C(C)=O)C(C)C3)cc1 (stereo not drawn)	active: -89%
COc1ccccc1NC(=O)c1c(Nc2ccccc2C)sc(C(=O)Nc2cccc(Cl)c2)c1N	inconclusive: -33.4%
CC1CN(c2nc3ccccn3c(=O)c2/C=C(\C#N)C(N)=O)CC(C)O1 (stereo not drawn)	inactive: -0.198%
O=C1C(=O)c2ccccc2C(O)=C1c1ccccc1F	active: -72.5%
Cc1ccc2nc(-c3ccco3)c(CC3CCCCC3)n2c1	inactive: 16.6%
C/C(COc1ccccc1)=N\NC(=O)c1nnn(-c2nonc2N)c1CSc1ccc(C)cc1	inconclusive: -35.2%
CN(C)CCCN(C(=O)c1nc2ccccc2s1)c1nc2ccc(F)cc2s1	inactive: 3.28%
COc1ccc([C@H]2CC(=O)C=C(c3cccc(Cl)c3O)C2)cc1OC	inconclusive: -30.8%
COc1ccc(CNCC(O)COc2ccc(C)cc2[N+](=O)[O-])cc1 (stereo not drawn)	inconclusive: -40.5%
Cc1ccc(S[C@@H](CCN2CC[C@H](NC(=O)OCc3ccccc3)CCC2=O)c2ccccc2)cc1	inconclusive: -36%
COc1ccc(-c2nnc(SCC(=O)Nc3ccccc3)n2C)cc1	inconclusive: -40.4%
CCOC(=O)c1c(NC(=S)N2CCN(C)CC2)sc2c1CCN(C(=O)OCC)C2	inconclusive: -47.6%
CCOc1ccc(CN(C(=O)c2cccs2)C2CCS(=O)(=O)C2)cc1 (stereo not drawn)	inactive: -8.58%
Cc1nn(Cc2ccccc2Cl)c(C)c1NC(=O)c1cc(-c2ccc(F)cc2)on1	inactive: 29.4%

Reformatted as comma-separated lines: two of the compounds above.
Structure (SMILES),"max response, negative = inhibition"
COc1ccc(NC(=O)C(=O)N2N=C(C(C)C)CC2(O)C(F)(F)F)cc1 (stereo not drawn),inconclusive: -45.3%
COc1ccc(CNS(=O)(=O)c2cc(Br)cc3c2N(C(C)=O)C(C)C3)cc1 (stereo not drawn),active: -89%
